These are yes or no findings as the source states them, for the method shown. Some entries that bind do so weakly or less than the wild type.

Protein sequences, listed by entry. Tags and fused reporters are not part of them. Residues count along the entry.
UniProt O75460, residues 29-977: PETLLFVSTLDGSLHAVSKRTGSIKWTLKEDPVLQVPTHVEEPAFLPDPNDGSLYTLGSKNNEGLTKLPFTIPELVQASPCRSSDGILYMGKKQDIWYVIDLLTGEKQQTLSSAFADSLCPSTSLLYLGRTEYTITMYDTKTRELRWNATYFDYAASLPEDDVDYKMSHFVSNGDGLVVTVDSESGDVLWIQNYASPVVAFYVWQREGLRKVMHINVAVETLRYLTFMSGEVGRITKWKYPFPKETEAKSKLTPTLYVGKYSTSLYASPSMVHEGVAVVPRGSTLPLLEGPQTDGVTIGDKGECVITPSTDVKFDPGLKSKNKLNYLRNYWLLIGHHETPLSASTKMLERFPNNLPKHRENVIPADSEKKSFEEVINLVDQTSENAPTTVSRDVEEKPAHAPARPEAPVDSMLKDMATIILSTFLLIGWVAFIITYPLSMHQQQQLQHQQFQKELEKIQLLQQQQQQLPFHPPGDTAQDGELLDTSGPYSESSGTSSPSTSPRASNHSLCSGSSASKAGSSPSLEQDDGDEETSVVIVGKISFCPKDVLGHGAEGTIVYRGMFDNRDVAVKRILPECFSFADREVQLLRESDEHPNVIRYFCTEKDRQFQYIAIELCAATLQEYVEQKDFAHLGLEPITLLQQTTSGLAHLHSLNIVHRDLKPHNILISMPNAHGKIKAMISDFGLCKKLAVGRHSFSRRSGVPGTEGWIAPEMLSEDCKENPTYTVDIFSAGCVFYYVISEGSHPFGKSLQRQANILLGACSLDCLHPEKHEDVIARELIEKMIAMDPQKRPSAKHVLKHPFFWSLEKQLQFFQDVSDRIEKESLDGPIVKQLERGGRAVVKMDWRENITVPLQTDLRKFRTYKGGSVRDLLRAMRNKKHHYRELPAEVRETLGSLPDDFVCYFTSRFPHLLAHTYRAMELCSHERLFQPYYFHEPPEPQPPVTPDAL
UniProt Q9UGP8: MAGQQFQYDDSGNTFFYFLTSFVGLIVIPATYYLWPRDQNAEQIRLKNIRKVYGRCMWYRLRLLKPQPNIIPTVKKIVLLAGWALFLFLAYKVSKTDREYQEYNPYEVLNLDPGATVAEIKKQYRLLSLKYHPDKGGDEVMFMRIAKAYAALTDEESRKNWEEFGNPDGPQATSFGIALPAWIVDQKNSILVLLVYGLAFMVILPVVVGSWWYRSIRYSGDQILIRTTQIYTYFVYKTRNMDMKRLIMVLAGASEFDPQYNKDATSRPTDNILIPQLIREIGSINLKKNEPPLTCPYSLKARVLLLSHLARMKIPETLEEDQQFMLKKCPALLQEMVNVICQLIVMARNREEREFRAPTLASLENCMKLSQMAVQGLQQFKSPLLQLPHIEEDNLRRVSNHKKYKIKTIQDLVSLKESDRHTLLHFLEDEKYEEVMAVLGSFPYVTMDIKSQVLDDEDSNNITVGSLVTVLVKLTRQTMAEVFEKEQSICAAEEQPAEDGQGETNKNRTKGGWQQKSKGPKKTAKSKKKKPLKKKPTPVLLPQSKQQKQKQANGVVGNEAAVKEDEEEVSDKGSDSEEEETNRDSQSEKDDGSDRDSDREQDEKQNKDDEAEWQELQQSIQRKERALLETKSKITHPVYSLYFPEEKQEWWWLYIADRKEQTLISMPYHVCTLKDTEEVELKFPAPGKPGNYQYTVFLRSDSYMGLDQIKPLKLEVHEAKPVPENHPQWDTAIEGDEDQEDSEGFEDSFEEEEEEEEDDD

These results are taken from publication PMC5449187.

In this assay the target is 2xStrep IRE1α (Prl-His-2xstrep-IRE1α-FLAG) (UniProt O75460). As to the kind of experiment: affinity co-purification (Strep-TactinXT, then SP Sepharose); 2xStrep IRE1α variants purified from digitonin-lysed HEK293 microsomes, eluted with biotin, then ion exchange; Coomassie-stained gel and standard immunoblots (Sec61α, BiP). On the technique in general: A western blot detects proteins with antibodies after separation by electrophoresis.

Turning to Sec63 (from UniProt Q9UGP8 1-760), the binding entry was “binds”.
